Reference: patent publication US7022484B2, “Methods for treating neuropathological states and neurogenic inflammatory states and methods for identifying compounds useful therein” (Board of Regents, The University of Texas System, priority 2000, dated 2006)

Experiment: In vitro transfer of drug across the microdialysis membrane
Conditions: in vitro estimate

**Q.** For `O=c1c(-c2ccc(O)cc2)coc2cc(O)cc(O)c12` [Genistein, 5,7-Dihydroxy-3-(4-hydroxyphenyl)-4H-1-benzopyran-4-one; 4′,5,7-trihydroxy-isoflavone], which “drug transferred across the microdialysis membrane” value is on record?
**A.** ≤ 5.6%
